Results on one substance are retold here after publication PMC6802093, “Structural characterization of HypX responsible for CO biosynthesis in the maturation of NiFe-hydrogenase” (Communications Biology, 2019).

The experiment deals with T1, A. aeolicus HypD (Aquifex aeolicus) (UniProt O67225).
T1 sequence: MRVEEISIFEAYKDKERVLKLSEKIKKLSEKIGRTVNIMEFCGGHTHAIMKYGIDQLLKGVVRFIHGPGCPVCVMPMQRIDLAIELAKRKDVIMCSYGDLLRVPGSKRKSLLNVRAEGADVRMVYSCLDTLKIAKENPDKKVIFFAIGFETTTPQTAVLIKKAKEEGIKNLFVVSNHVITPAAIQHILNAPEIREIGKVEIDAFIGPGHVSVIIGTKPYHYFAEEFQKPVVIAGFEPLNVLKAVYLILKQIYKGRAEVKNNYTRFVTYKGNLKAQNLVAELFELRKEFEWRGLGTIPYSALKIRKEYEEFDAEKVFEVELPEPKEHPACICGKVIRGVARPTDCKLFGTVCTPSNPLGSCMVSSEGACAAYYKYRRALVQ
The experiment in a line: SEC; Superdex75 10/300GL, 50 mM Tris-HCl (pH 8.0), 200 mM NaCl, 1 mM DTT; HypC alone, HypD alone, and HypC and HypD mixed in equal molar amount; apparent masses; both purified. Background: SEC sorts molecules by how far they enter the pores of the column.

These are yes or no findings as the source states them, for the method shown. A result given as binding can be weak or reduced; the word gives no strength.

Regarding A. aeolicus HypC (Aquifex aeolicus), the binding result is given as “binds”.
